Results are given in words; binding and its absence hold for the method and conditions named. Some binding calls cover weakened binding; strength is not graded here.

For the experiment, the target named is T1, mouse RAG1 (aa 265–1040) (mouse, UniProt P15919 265-1040).
T1 sequence (looked up): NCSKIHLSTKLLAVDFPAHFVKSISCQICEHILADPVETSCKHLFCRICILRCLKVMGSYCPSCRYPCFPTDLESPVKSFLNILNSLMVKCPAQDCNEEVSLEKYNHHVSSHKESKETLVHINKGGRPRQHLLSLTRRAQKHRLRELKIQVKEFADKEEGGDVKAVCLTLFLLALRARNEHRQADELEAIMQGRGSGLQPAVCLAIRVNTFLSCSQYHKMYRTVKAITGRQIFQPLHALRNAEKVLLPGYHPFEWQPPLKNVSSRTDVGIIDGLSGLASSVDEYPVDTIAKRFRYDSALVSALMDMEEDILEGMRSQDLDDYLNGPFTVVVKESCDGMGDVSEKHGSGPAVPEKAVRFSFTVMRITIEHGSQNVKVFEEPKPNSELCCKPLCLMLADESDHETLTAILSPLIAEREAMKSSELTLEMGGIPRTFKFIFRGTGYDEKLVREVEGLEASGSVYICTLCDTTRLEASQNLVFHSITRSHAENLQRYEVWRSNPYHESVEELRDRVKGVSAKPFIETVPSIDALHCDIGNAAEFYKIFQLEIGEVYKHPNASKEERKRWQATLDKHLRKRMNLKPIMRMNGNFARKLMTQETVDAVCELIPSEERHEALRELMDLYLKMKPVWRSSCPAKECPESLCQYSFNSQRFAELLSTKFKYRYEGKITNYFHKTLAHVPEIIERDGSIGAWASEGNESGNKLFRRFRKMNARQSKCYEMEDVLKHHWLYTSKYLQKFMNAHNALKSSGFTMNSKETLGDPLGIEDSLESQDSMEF
The experiment in a line: cryo-EM structure; Signal-End Complex (SEC): MBP-mRAG (RAG1 and RAG2 co-expressed and co-purified), pre-cleaved 12- and 23-RSS signal end DNAs and HMGB1 (aa 1–163) mixed in 20 mM HEPES pH 7.4, 100 mM KCl, 5 mM CaCl2, 37°C 10 min, no H3K4me3 peptide; purified on Superdex 200 Increase; classes SEC-0, SEC-PHD, SEC-1DNA, SEC-2DNA; both purified.

B1: mouse T490A RAG2 (aa 1–520) (natural protein, UniProt P21784 1-520, looked up)
chain: MSLQMVTVGHNIALIQPGFSLMNFDGQVFFFGQKGWPKRSCPTGVFHFDIKQNHLKLKPAIFSKDSCYLPPLRYPATCSYKGSIDSDKHQYIIHGGKTPNNELSDKIYIMSVACKNNKKVTFRCTEKDLVGDVPEPRYGHSIDVVYSRGKSMGVLFGGRSYMPSTQRTTEKWNSVADCLPHVFLIDFEFGCATSYILPELQDGLSFHVSIARNDTVYILGGHSLASNIRPANLYRIRVDLPLGTPAVNCTVLPGGISVSSAILTQTNNDEFVIVGGYQLENQKRMVCSLVSLGDNTIEISEMETPDWTSDIKHSKIWFGSNMGNGTIFLGIPGDNKQAMSEAFYFYTLRCSEEDLSEDQKIVSNSQTSTEDPGDSTPFEDSEEFCFSAEATSFDGDDEFDTYNEDDEDDESVTGYWITCCPTCDVDINTWVPFYSTELNKPAMIYCSHGDGHWVHAQCMDLEERTLIHLSEGSNKYYCNEHVQIARALQAPKRNPPLQKPPMKSLHKKGSGKVLTPAKKS
Turning to B1, the binding entry is “binds”.

For the origin of these results see paper PMC11844651, “How RAG1/2 evolved from ancestral transposases to initiate V(D)J recombination without transposition” (Research Square, 2025).
